Drawing on publication PMC9136845, this text covers binding for one molecule.

These are yes or no findings as the source states them, for the method shown. Binding seen in cells or lysates may run through a third protein. A yes stands for co-enrichment or nearness to the bait. Other partners may have been found.

The target in assay [1] is T1, embryonic ectoderm development (EED) GFP-fusion protein, O75530. Briefly: affinity purification with mass spectrometry; GFP enrichment with Chromotek GFP-Trap magnetic beads (~93 million beads, 50 μL slurry) from 1 mg nuclear extract of EED-GFP HeLa cells, WT HeLa nuclear extract as control; 90 min at 4 °C in nuclei lysis buffer (420 mM NaCl, 20 mM HEPES/KOH pH 7.9, 0.1% NP40); on-bead trypsin digestion, label-free nanoLC-MS/MS, triplicates. The note with it: remark: other sources report otherwise.

The target of assay [2] is T1, embryonic ectoderm development (EED) …. The assay is described as follows: affinity purification with mass spectrometry; GFP enrichment with antifouling pSB-co-(aGFP)8% beads (~93 million beads) from 1 mg nuclear extract of EED-GFP HeLa cells, WT HeLa nuclear extract as control; 90 min at 4 °C in nuclei lysis buffer (420 mM NaCl, 20 mM HEPES/KOH pH 7.9, 0.1% NP40); on-bead trypsin digestion, label-free nanoLC-MS/MS, triplicates. The note with it: remark: other sources report otherwise.

B1: RBBP7, Q16576 1-425 (protein)
chain: MASKEMFEDTVEERVINEEYKIWKKNTPFLYDLVMTHALQWPSLTVQWLPEVTKPEGKDYALHWLVLGTHTSDEQNHLVVARVHIPNDDAQFDASHCDSDKGEFGGFGSVTGKIECEIKINHEGEVNRARYMPQNPHIIATKTPSSDVLVFDYTKHPAKPDPSGECNPDLRLRGHQKEGYGLSWNSNLSGHLLSASDDHTVCLWDINAGPKEGKIVDAKAIFTGHSAVVEDVAWHLLHESLFGSVADDQKLMIWDTRSNTTSKPSHLVDAHTAEVNCLSFNPYSEFILATGSADKTVALWDLRNLKLKLHTFESHKDEIFQVHWSPHNETILASSGTDRRLNVWDLSKIGEEQSAEDAEDGPPELLFIHGGHTAKISDFSWNPNEPWVICSVSEDNIMQIWQMAENIYNDEESDVTTSELEGQGS
As for B1, the binding result in assay [1] and in assay [2] was “binds” throughout.
